Test results taken from patent US9926581B2, “Fagopyritol synthase genes and uses thereof” (Cornell Research Foundation, Inc., priority 2002, dated 2018).
Where “and” joins values, the source holds several entries; their conditions need not be identical. Identical values can stand only once.

Tests used:
[1] = tested on: soybean explants; test: Soybean explant feeding with 50 mM free cyclitols for one week, soluble carbohydrates in mature seeds; format: in vivo, Glycine max (L.) Merrill cv. Chippewa 64
[2] = tested on: buckwheat explants; test: Buckwheat explant feeding with 100 mM cyclitol in 1% sucrose for 5 days, soluble carbohydrates in embryos and leaf disks; format: in vivo, Fagopyrum esculentum; settings: replicate values
[3] = tested on: soybean explants; test: Soybean explant feeding 3 days with 50 mM cyclitol in 1% sucrose, slow drying time course, soluble carbohydrates in axis, cotyledon, seed coat and leaf
[4] = tested on: buckwheat embryos; test: Soluble carbohydrates in buckwheat embryos from seeds matured at 15, 22 or 30° C.; format: in vivo, Fagopyrum esculentum Moench; settings: for Soluble carbohydrates in buckwheat embryos: harvested at 28 DAP and dried 2 weeks at 12% RH, mean ± SE
[5] = 3 days transport of sucrose (1%) and D-chiro-inositol (50 mM), after 2 days slow drying, Rep 1
[6] = 3 days transport of sucrose (1%) and D-chiro-inositol (50 mM), after 2 days slow drying, Rep 2
[7] = 3 days transport of sucrose (1%) and D-chiro-inositol (50 mM), after 4 days slow drying, Rep 1
[8] = 3 days transport of sucrose (1%) and D-chiro-inositol (50 mM), after 4 days slow drying, Rep 2
[9] = 3 days transport of sucrose (1%) and D-chiro-inositol (50 mM), after 14 days slow drying, Rep 1
[10] = 3 days transport of sucrose (1%) and D-chiro-inositol (50 mM), after 14 days slow drying, Rep 2
[11] = 3 days transport of sucrose (1%) and D-chiro-inositol (50 mM), before slow drying, Rep 1
[12] = 3 days transport of sucrose (1%) and D-chiro-inositol (50 mM), before slow drying, Rep 2
[13] = 3 days transport of sucrose (1%) and D-pinitol (50 mM), after 2 days slow drying, Rep 1
[14] = 3 days transport of sucrose (1%) and D-pinitol (50 mM), after 2 days slow drying, Rep 2
[15] = 3 days transport of sucrose (1%) and D-pinitol (50 mM), after 4 days slow drying, Rep 1
[16] = 3 days transport of sucrose (1%) and D-pinitol (50 mM), after 4 days slow drying, Rep 2
[17] = 3 days transport of sucrose (1%) and D-pinitol (50 mM), after 14 days slow drying, Rep 1
[18] = 3 days transport of sucrose (1%) and D-pinitol (50 mM), after 14 days slow drying, Rep 2
[19] = 3 days transport of sucrose (1%) and D-pinitol (50 mM), before slow drying, Rep 1
[20] = 3 days transport of sucrose (1%) and D-pinitol (50 mM), before slow drying, Rep 2
[21] = 3 days transport of sucrose (1%) and myo-inositol (50 mM), after 2 days slow drying, Rep 1
[22] = 3 days transport of sucrose (1%) and myo-inositol (50 mM), after 2 days slow drying, Rep 2
[23] = 3 days transport of sucrose (1%) and myo-inositol (50 mM), after 4 days slow drying, Rep 1
[24] = 3 days transport of sucrose (1%) and myo-inositol (50 mM), after 4 days slow drying, Rep 2
[25] = 3 days transport of sucrose (1%) and myo-inositol (50 mM), after 14 days slow drying, Rep 1
[26] = 3 days transport of sucrose (1%) and myo-inositol (50 mM), after 14 days slow drying, Rep 2
[27] = 3 days transport of sucrose (1%) and myo-inositol (50 mM), before slow drying, Rep 1
[28] = 3 days transport of sucrose (1%) and myo-inositol (50 mM), before slow drying, Rep 2
[29] = 3 days transport of sucrose (1%) without cyclitols, after 2 days slow drying, Rep 1
[30] = 3 days transport of sucrose (1%) without cyclitols, after 2 days slow drying, Rep 2
[31] = 3 days transport of sucrose (1%) without cyclitols, after 4 days slow drying, Rep 1
[32] = 3 days transport of sucrose (1%) without cyclitols, after 4 days slow drying, Rep 2
[33] = 3 days transport of sucrose (1%) without cyclitols, after 14 days slow drying, Rep 1
[34] = 3 days transport of sucrose (1%) without cyclitols, after 14 days slow drying, Rep 2
[35] = 3 days transport of sucrose (1%) without cyclitols, before slow drying, Rep 1
[36] = 3 days transport of sucrose (1%) without cyclitols, before slow drying, Rep 2

OCC1O[C@H](OCC2O[C@H](OC3C(O)[C@H](O)C(O)[C@H](O)[C@@H]3O)C(O)[C@H](O)[C@H]2O)C(O)[C@H](O)[C@H]1O (stereo partly drawn) [α-D-galactopyranosyl-(1→6)-α-D-galactopyranosyl-(1→2)-1D-chiro-inositol]
increase after feeding 50 mM D-chiro-inositol to explants ([1]; axis tissues): 11 fold
increase after feeding 50 mM D-chiro-inositol to explants ([1]; cotyledon tissues): 10 fold
Soluble carbohydrates in embryos of seeds from buckwheat explants ([2]; fed 100 mM D-chiro-inositol in 1% sucrose solution 5 days, 2 days slow drying): 5.51 μg/embryo and 3.45 μg/embryo
Soluble carbohydrates in embryos of seeds from buckwheat explants ([2]; fed 100 mM D-chiro-inositol in 1% sucrose solution 5 days, 4 days slow drying): 3.95 μg/embryo and 2.83 μg/embryo and 1.57 μg/embryo
Soluble carbohydrates in embryos of seeds from buckwheat explants ([2]; fed 100 mM D-chiro-inositol in 1% sucrose solution 5 days, 7 days slow drying): 2.28 μg/embryo and 0.91 μg/embryo and 1.99 μg/embryo
Soluble carbohydrates in embryos of seeds from buckwheat explants ([2]; fed 100 mM D-chiro-inositol in 1% sucrose solution, after 1 day feeding): 0 μg/embryo
Soluble carbohydrates in embryos of seeds from buckwheat explants ([2]; fed 100 mM D-chiro-inositol in 1% sucrose solution, after 5 days feeding): 0 μg/embryo and 5.48 μg/embryo and 1.72 μg/embryo
Soluble carbohydrates in embryos of seeds from buckwheat explants ([2]; fed 100 mM D-pinitol in 1% sucrose solution 5 days, 2 days slow drying): 0 μg/embryo and 6.69 μg/embryo and 4.98 μg/embryo
Soluble carbohydrates in embryos of seeds from buckwheat explants ([2]; fed 100 mM D-pinitol in 1% sucrose solution 5 days, 4 days slow drying): 5.70 μg/embryo and 4.29 μg/embryo and 4.46 μg/embryo
Soluble carbohydrates in embryos of seeds from buckwheat explants ([2]; fed 100 mM D-pinitol in 1% sucrose solution 5 days, 7 days slow drying): 1.60 μg/embryo and 0.48 μg/embryo and 2.47 μg/embryo
Soluble carbohydrates in embryos of seeds from buckwheat explants ([2]; fed 100 mM D-pinitol in 1% sucrose solution, after 1 day feeding): 0 μg/embryo
Soluble carbohydrates in embryos of seeds from buckwheat explants ([2]; fed 100 mM D-pinitol in 1% sucrose solution, after 5 days feeding): 0 μg/embryo
Soluble carbohydrates in embryos of seeds from buckwheat explants ([2]; fed 100 mM myo-inositol in 1% sucrose solution 5 days, 2 days slow drying): 35.81 μg/embryo and 3.22 μg/embryo
Soluble carbohydrates in embryos of seeds from buckwheat explants ([2]; fed 100 mM myo-inositol in 1% sucrose solution 5 days, 4 days slow drying): 13.37 μg/embryo and 3.31 μg/embryo
Soluble carbohydrates in embryos of seeds from buckwheat explants ([2]; fed 100 mM myo-inositol in 1% sucrose solution 5 days, 7 days slow drying): 3.53 μg/embryo and 2.57 μg/embryo
Soluble carbohydrates in embryos of seeds from buckwheat explants ([2]; fed 100 mM myo-inositol in 1% sucrose solution, after 1 day feeding): 0 μg/embryo
Soluble carbohydrates in embryos of seeds from buckwheat explants ([2]; fed 100 mM myo-inositol in 1% sucrose solution, after 5 days feeding): 1.62 μg/embryo and 0 μg/embryo
Soluble carbohydrates in embryos of seeds from buckwheat explants ([2]; fed 1% sucrose (without cyclitols) solution 5 days, 2 days slow drying): 0.66 μg/embryo and 10.83 μg/embryo and 4.39 μg/embryo
Soluble carbohydrates in embryos of seeds from buckwheat explants ([2]; fed 1% sucrose (without cyclitols) solution 5 days, 4 days slow drying): 11.05 μg/embryo and 5.72 μg/embryo
Soluble carbohydrates in embryos of seeds from buckwheat explants ([2]; fed 1% sucrose (without cyclitols) solution 5 days, 7 days slow drying): 7.65 μg/embryo and 6.34 μg/embryo
Soluble carbohydrates in embryos of seeds from buckwheat explants ([2]; fed 1% sucrose (without cyclitols) solution, after 5 days feeding): 0 μg/embryo and 6.72 μg/embryo
Accumulation of soluble carbohydrates in soybean axis [3, 5]: 0 μg/axis
Accumulation of soluble carbohydrates in soybean cotyledon [3, 5]: 0 μg/cotyledon
Accumulation of soluble carbohydrates in soybean seed coat [3, 5]: 0 μg/seed coat
Accumulation of soluble carbohydrates in soybean axis [3, 6]: 0 μg/axis
Accumulation of soluble carbohydrates in soybean cotyledon [3, 6]: 4.57 μg/cotyledon
Accumulation of soluble carbohydrates in soybean seed coat [3, 6]: 0 μg/seed coat
Accumulation of soluble carbohydrates in soybean axis [3, 7]: 0 μg/axis
Accumulation of soluble carbohydrates in soybean cotyledon [3, 7]: 12.10 μg/cotyledon
Accumulation of soluble carbohydrates in soybean seed coat [3, 7]: 0 μg/seed coat
Accumulation of soluble carbohydrates in soybean axis [3, 8]: 1.72 μg/axis
Accumulation of soluble carbohydrates in soybean cotyledon [3, 8]: 11.12 μg/cotyledon
Accumulation of soluble carbohydrates in soybean seed coat [3, 8]: 0 μg/seed coat
Accumulation of soluble carbohydrates in soybean axis [3, 9]: 2.07 μg/axis
Accumulation of soluble carbohydrates in soybean cotyledon [3, 9]: 23.98 μg/cotyledon
Accumulation of soluble carbohydrates in soybean seed coat [3, 9]: 0 μg/seed coat
Accumulation of soluble carbohydrates in soybean axis [3, 10]: 0 μg/axis
Accumulation of soluble carbohydrates in soybean cotyledon [3, 10]: 22.70 μg/cotyledon
Accumulation of soluble carbohydrates in soybean seed coat [3, 10]: 1.35 μg/seed coat
Accumulation of soluble carbohydrates in soybean axis [3, 11]: 0 μg/axis
Accumulation of soluble carbohydrates in soybean cotyledon [3, 11]: 0 μg/cotyledon
Accumulation of soluble carbohydrates in soybean axis [3, 12]: 0 μg/axis
Accumulation of soluble carbohydrates in soybean cotyledon [3, 12]: 0 μg/cotyledon
Accumulation of soluble carbohydrates in soybean axis [3, 13]: 0 μg/axis
Accumulation of soluble carbohydrates in soybean cotyledon [3, 13]: 4.91 μg/cotyledon
Accumulation of soluble carbohydrates in soybean seed coat [3, 13]: 0 μg/seed coat
Accumulation of soluble carbohydrates in soybean axis [3, 14]: 0 μg/axis
Accumulation of soluble carbohydrates in soybean cotyledon [3, 14]: 0 μg/cotyledon
Accumulation of soluble carbohydrates in soybean seed coat [3, 14]: 0 μg/seed coat
Accumulation of soluble carbohydrates in soybean axis [3, 15]: 0 μg/axis
Accumulation of soluble carbohydrates in soybean cotyledon [3, 15]: 15.04 μg/cotyledon
Accumulation of soluble carbohydrates in soybean seed coat [3, 15]: 0 μg/seed coat
Accumulation of soluble carbohydrates in soybean axis [3, 16]: 0 μg/axis
Accumulation of soluble carbohydrates in soybean cotyledon [3, 16]: 11.92 μg/cotyledon
Accumulation of soluble carbohydrates in soybean seed coat [3, 16]: 0 μg/seed coat
Accumulation of soluble carbohydrates in soybean axis [3, 17]: 0 μg/axis
Accumulation of soluble carbohydrates in soybean cotyledon [3, 17]: 1.77 μg/cotyledon
Accumulation of soluble carbohydrates in soybean seed coat [3, 17]: 0 μg/seed coat
Accumulation of soluble carbohydrates in soybean axis [3, 18]: 1.26 μg/axis
Accumulation of soluble carbohydrates in soybean cotyledon [3, 18]: 0 μg/cotyledon
Accumulation of soluble carbohydrates in soybean seed coat [3, 18]: 0 μg/seed coat
Accumulation of soluble carbohydrates in soybean axis [3, 19]: 0 μg/axis
Accumulation of soluble carbohydrates in soybean cotyledon [3, 19]: 0 μg/cotyledon
Accumulation of soluble carbohydrates in soybean axis [3, 20]: 0 μg/axis
Accumulation of soluble carbohydrates in soybean cotyledon [3, 20]: 0 μg/cotyledon
Accumulation of soluble carbohydrates in soybean axis [3, 21]: 0 μg/axis
Accumulation of soluble carbohydrates in soybean cotyledons [3, 21]: 0 μg/cotyledon
Accumulation of soluble carbohydrates in soybean seed coats [3, 21]: 0 μg/seed coat
Accumulation of soluble carbohydrates in soybean axis [3, 22]: 0 μg/axis
Accumulation of soluble carbohydrates in soybean cotyledons [3, 22]: 0 μg/cotyledon
Accumulation of soluble carbohydrates in soybean seed coats [3, 22]: 0 μg/seed coat
Accumulation of soluble carbohydrates in soybean axis [3, 23]: 0 μg/axis
Accumulation of soluble carbohydrates in soybean cotyledons [3, 23]: 0 μg/cotyledon
Accumulation of soluble carbohydrates in soybean axis [3, 24]: 0 μg/axis
Accumulation of soluble carbohydrates in soybean cotyledons [3, 24]: 0 μg/cotyledon
Accumulation of soluble carbohydrates in soybean seed coats [3, 24]: 0 μg/seed coat
Accumulation of soluble carbohydrates in soybean axis [3, 25]: 0 μg/axis
Accumulation of soluble carbohydrates in soybean cotyledons [3, 25]: 1.29 μg/cotyledon
Accumulation of soluble carbohydrates in soybean seed coats [3, 25]: 0 μg/seed coat
Accumulation of soluble carbohydrates in soybean axis [3, 26]: 0 μg/axis
Accumulation of soluble carbohydrates in soybean cotyledons [3, 26]: 5.27 μg/cotyledon
Accumulation of soluble carbohydrates in soybean seed coats [3, 26]: 0 μg/seed coat
Accumulation of soluble carbohydrates in soybean axis [3, 27]: 0 μg/axis
Accumulation of soluble carbohydrates in soybean cotyledons [3, 27]: 0 μg/cotyledon
Accumulation of soluble carbohydrates in soybean axis [3, 28]: 0 μg/axis
Accumulation of soluble carbohydrates in soybean cotyledons [3, 28]: 0 μg/cotyledon
Accumulation of soluble carbohydrates in soybean axis [3, 29]: 5.67 μg/axis
Accumulation of soluble carbohydrates in soybean cotyledon [3, 29]: 2.69 μg/cotyledon
Accumulation of soluble carbohydrates in soybean seed coats [3, 29]: 0 μg/seed coat
Accumulation of soluble carbohydrates in soybean axis [3, 30]: 0 μg/axis
Accumulation of soluble carbohydrates in soybean cotyledon [3, 30]: 0 μg/cotyledon
Accumulation of soluble carbohydrates in soybean seed coats [3, 30]: 0 μg/seed coat
Accumulation of soluble carbohydrates in soybean axis [3, 31]: 0 μg/axis
Accumulation of soluble carbohydrates in soybean cotyledon [3, 31]: 11.94 μg/cotyledon
Accumulation of soluble carbohydrates in soybean seed coats [3, 31]: 0 μg/seed coat
Accumulation of soluble carbohydrates in soybean axis [3, 32]: 0 μg/axis
Accumulation of soluble carbohydrates in soybean cotyledon [3, 32]: 2.08 μg/cotyledon
Accumulation of soluble carbohydrates in soybean seed coats [3, 32]: 0 μg/seed coat
Accumulation of soluble carbohydrates in soybean axis [3, 33]: 0 μg/axis
Accumulation of soluble carbohydrates in soybean cotyledon [3, 33]: 4.52 μg/cotyledon
Accumulation of soluble carbohydrates in soybean seed coats [3, 33]: 0 μg/seed coat
Accumulation of soluble carbohydrates in soybean axis [3, 34]: 0 μg/axis
Accumulation of soluble carbohydrates in soybean cotyledon [3, 34]: 4.65 μg/cotyledon
Accumulation of soluble carbohydrates in soybean seed coats [3, 34]: 0 μg/seed coat
Accumulation of soluble carbohydrates in soybean axis [3, 35]: 0 μg/axis
Accumulation of soluble carbohydrates in soybean cotyledon [3, 35]: 0 μg/cotyledon
Accumulation of soluble carbohydrates in soybean axis [3, 36]: 0 μg/axis
Accumulation of soluble carbohydrates in soybean cotyledon [3, 36]: 0 μg/cotyledon
content in embryos of seeds matured at 30° C. relative to 15° C. ([4]; after 2 weeks of drying of seeds): ~8 times
Soluble carbohydrates in buckwheat embryos ([4]; seeds matured at 15° C.): 2.47 ± 0.74 μg/embryo
Soluble carbohydrates in buckwheat embryos ([4]; seeds matured at 22° C.): 12.98 ± 3.59 μg/embryo
Soluble carbohydrates in buckwheat embryos ([4]; seeds matured at 30° C.): 19.70 ± 1.74 μg/embryo
